The target in the experiment is T1, 2× HA-3× FLAG-Eya1 (UniProt P97767).
T1 sequence: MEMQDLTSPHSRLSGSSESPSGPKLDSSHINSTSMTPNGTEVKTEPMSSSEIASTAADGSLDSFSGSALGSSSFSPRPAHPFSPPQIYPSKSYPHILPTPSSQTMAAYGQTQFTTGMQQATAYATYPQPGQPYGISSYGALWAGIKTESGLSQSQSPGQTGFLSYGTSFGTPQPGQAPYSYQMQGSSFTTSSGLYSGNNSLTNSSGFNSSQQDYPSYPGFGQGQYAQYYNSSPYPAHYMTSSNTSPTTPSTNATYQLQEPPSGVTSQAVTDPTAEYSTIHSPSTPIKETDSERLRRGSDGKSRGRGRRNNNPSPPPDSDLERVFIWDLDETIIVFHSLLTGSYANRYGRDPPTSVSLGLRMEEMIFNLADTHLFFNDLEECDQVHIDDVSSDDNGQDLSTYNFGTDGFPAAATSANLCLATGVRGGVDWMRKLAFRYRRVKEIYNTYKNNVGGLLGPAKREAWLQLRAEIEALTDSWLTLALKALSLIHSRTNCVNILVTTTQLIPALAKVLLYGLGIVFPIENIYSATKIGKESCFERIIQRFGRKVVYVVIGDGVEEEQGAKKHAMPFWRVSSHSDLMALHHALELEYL
Description: affinity purification with mass spectrometry; tandem purification of HF-Eya1 from lysate of stable HEK293 cells: anti-FLAG M2 beads, FLAG peptide elution, then anti-HA agarose; 50 mM Tris-HCl pH 7.5, 150 mM NaCl, 0.1% Nonidet P-40, 4°C; 12 bands (B1-B12) cut from a silver-stained gel.

Results are given in words; binding and its absence hold for the method and conditions named. Binding seen in cells or lysates may run through a third protein. These calls come from enrichment with a bait or labelling near it, and not all partners need be listed. Sequences can lack the tags named with a protein.

B1: transcription termination factor TTF2 (protein, UniProt Q9UNY4 1-1162)
chain: MEEVRCPEHGTFCFLKTGVRDGPNKGKSFYVCRADTCSFVRATDIPVSHCLLHEDFVVELQGLLLPQDKKEYRLFFRCIRSKAEGKRWCGSIPWQDPDSKEHSVSNKSQHASETFHHSSNWLRNPFKVLDKNQEPALWKQLIKGEGEEKKADKKQREKGDQLFDQKKEQKPEMMEKDLSSGLVPKKKQSVVQEKKQEEGAEIQCEAETGGTHKRDFSEIKSQQCQGNELTRPSASSQEKSSGKSQDVQRESEPLREKVTQLLPQNVHSHNSISKPQKGGPLNKEYTNWEAKETKAKDGPSIQATQKSLPQGHFQERPETHSVPAPGGPAAQAAPAAPGLSLGEGREAATSSDDEEEDDVVFVSSKPGSPLLFDSTLDLETKENLQFPDRSVQRKVSPASGVSKKVEPSDPVARRVYLTTQLKQKKSTLASVNIQALPDKGQKLIKQIQELEEVLSGLTLSPEQGTNEKSNSQVPQQSHFTKTTTGPPHLVPPQPLPRRGTQPVGSLELKSACQVTAGGSSQCYRGHTNQDHVHAVWKITSEAIGQLHRSLESCPGETVVAEDPAGLKVPLLLHQKQALAWLLWRESQKPQGGILADDMGLGKTLTMIALILTQKNQEKKEEKEKSTALTWLSKDDSCDFTSHGTLIICPASLIHHWKNEVEKRVNSNKLRVYLYHGPNRDSRARVLSTYDIVITTYSLVAKEIPTNKQEAEIPGANLNVEGTSTPLLRIAWARIILDEAHNVKNPRVQTSIAVCKLQACARWAVTGTPIQNNLLDMYSLLKFLRCSPFDEFNLWRSQVDNGSKKGGERLSILTKSLLLRRTKDQLDSTGRPLVILPQRKFQLHHLKLSEDEETVYNVFFARSRSALQSYLKRHESRGNQSGRSPNNPFSRVALEFGSEEPRHSEAADSPRSSTVHILSQLLRLRQCCCHLSLLKSALDPMELKGEGLVLSLEEQLSALTLSELRDSEPSSTVSLNGTFFKMELFEGMRESTKISSLLAELEAIQRNSASQKSVIVSQWTNMLKVVALHLKKHGLTYATIDGSVNPKQRMDLVEAFNHSRGPQVMLISLLAGGVGLNLTGGNHLFLLDMHWNPSLEDQACDRIYRVGQQKDVVIHRFVCEGTVEEKILQLQEKKKDLAKQVLSGSGESVTKLTLADLRVLFGI
B1: the binding entry was “binds”.

B2: MCM5 (protein, UniProt P33992 1-734)
chain: MSGFDDPGIFYSDSFGGDAQADEGQARKSQLQRRFKEFLRQYRVGTDRTGFTFKYRDELKRHYNLGEYWIEVEMEDLASFDEDLADYLYKQPAEHLQLLEEAAKEVADEVTRPRPSGEEVLQDIQVMLKSDASPSSIRSLKSDMMSHLVKIPGIIIAASAVRAKATRISIQCRSCRNTLTNIAMRPGLEGYALPRKCNTDQAGRPKCPLDPYFIMPDKCKCVDFQTLKLQELPDAVPHGEMPRHMQLYCDRYLCDKVVPGNRVTIMGIYSIKKFGLTTSRGRDRVGVGIRSSYIRVLGIQVDTDGSGRSFAGAVSPQEEEEFRRLAALPNVYEVISKSIAPSIFGGTDMKKAIACLLFGGSRKRLPDGLTRRGDINLLMLGDPGTAKSQLLKFVEKCSPIGVYTSGKGSSAAGLTASVMRDPSSRNFIMEGGAMVLADGGVVCIDEFDKMREDDRVAIHEAMEQQTISIAKAGITTTLNSRCSVLAAANSVFGRWDETKGEDNIDFMPTILSRFDMIFIVKDEHNEERDVMLAKHVITLHVSALTQTQAVEGEIDLAKLKKFIAYCRVKCGPRLSAEAAEKLKNRYIIMRSGARQHERDSDRRSSIPITVRQLEAIVRIAEALSKMKLQPFATEADVEEALRLFQVSTLDAALSGTLSGVEGFTSQEDQEMLSRIEKQLKRRFAIGSQVSEHSIIKDFTKQKYPEHAIHKVLQLMLRRGEIQHRMQRKVLYRLK
As for B2, the binding entry is given as “binds”.

B3: RFC1 (replication factor, DNA-dependetn ATPase) (protein, UniProt P35251 1-1148)
chain: MDIRKFFGVIPSGKKLVSETVKKNEKTKSDEETLKAKKGIKEIKVNSSRKEDDFKQKQPSKKKRIIYDSDSESEETLQVKNAKKPPEKLPVSSKPGKISRQDPVTYISETDEEDDFMCKKAASKSKENGRSTNSHLGTSNMKKNEENTKTKNKPLSPIKLTPTSVLDYFGTGSVQRSNKKMVASKRKELSQNTDESGLNDEAIAKQLQLDEDAELERQLHEDEEFARTLAMLDEEPKTKKARKDTEAGETFSSVQANLSKAEKHKYPHKVKTAQVSDERKSYSPRKQSKYESSKESQQHSKSSADKIGEVSSPKASSKLAIMKRKEESSYKEIEPVASKRKENAIKLKGETKTPKKTKSSPAKKESVSPEDSEKKRTNYQAYRSYLNREGPKALGSKEIPKGAENCLEGLIFVITGVLESIERDEAKSLIERYGGKVTGNVSKKTNYLVMGRDSGQSKSDKAAALGTKIIDEDGLLNLIRTMPGKKSKYEIAVETEMKKESKLERTPQKNVQGKRKISPSKKESESKKSRPTSKRDSLAKTIKKETDVFWKSLDFKEQVAEETSGDSKARNLADDSSENKVENLLWVDKYKPTSLKTIIGQQGDQSCANKLLRWLRNWQKSSSEDKKHAAKFGKFSGKDDGSSFKAALLSGPPGVGKTTTASLVCQELGYSYVELNASDTRSKSSLKAIVAESLNNTSIKGFYSNGAASSVSTKHALIMDEVDGMAGNEDRGGIQELIGLIKHTKIPIICMCNDRNHPKIRSLVHYCFDLRFQRPRVEQIKGAMMSIAFKEGLKIPPPAMNEIILGANQDIRQVLHNLSMWCARSKALTYDQAKADSHRAKKDIKMGPFDVARKVFAAGEETAHMSLVDKSDLFFHDYSIAPLFVQENYIHVKPVAAGGDMKKHLMLLSRAADSICDGDLVDSQIRSKQNWSLLPAQAIYASVLPGELMRGYMTQFPTFPSWLGKHSSTGKHDRIVQDLALHMSLRTYSSKRTVNMDYLSLLRDALVQPLTSQGVDGVQDVVALMDTYYLMKEDFENIMEISSWGGKPSPFSKLDPKVKAAFTRAYNKEAHLTPYSLQAIKASRHSTSPSLDSEYNEELNEDDSQSDEKDQDAIETDAMIKKKTKSSKPSKPEKDKEPRKGKGKSSKK
With B3, the binding entry is reported as “binds”.

B4: FAM120A (constitutive activator of PPAR-gamma-like protein) (protein, UniProt Q9NZB2 1-1118)
chain: MGVQGFQDYIEKHCPSAVVPVELQKLARGSLVGGGRQRPPQTPLRLLVDADNCLHRLYGGFYTDWVSGGQWNHMLGYLAALAKACFGGNIELFVFFNGALEKARLHEWVKRQGNERQTAQQIVSHVQNKGTPPPKVWFLPPVCMAHCIRLALIRFHVKVAQSIEDHHQEVIGFCRENGFHGLVAYDSDYALCNIPYYFSAHALKLSRNGKSLTTSQYLMHEVAKQLDLNPNRFPIFAALLGNHILPDEDLASFHWSLLGPEHPLASLKVRAHQLVLPPCDVVIKAVADYVRNIQDTSDLDAIAKDVFQHSQSRTDDKVIRFKRAIGYYSATSKPMSFHPPHYLAARPGPFGMPGMVPPHVPPQMLNIPQTSLQAKPVAPQVPSPGGAPGQGPYPYSLSEPAPLTLDTSGKNLTEQNSYSNIPHEGKHTPLYERSSPINPAQSGSPNHVDSAYFPGSSTSSSSDNDEGSGGATNHISGNKIGWEKTGSHSEPQARGDPGDQTKAEGSSTASSGSQLAEGKGSQMGTVQPIPCLLSMPTRNHMDITTPPLPPVAPEVLRVAEHRHKKGLMYPYIFHVLTKGEIKIAVSIEDEANKDLPPAALLYRPVRQYVYGVLFSLAESRKKTERLAFRKNRLPPEFSPVIIKEWAAYKGKSPQTPELVEALAFREWTCPNLKRLWLGKAVEDKNRRMRAFLACMRSDTPAMLNPANVPTHLMVLCCVLRYMVQWPGARILRRQELDAFLAQALSPKLYEPDQLQELKIENLDPRGIQLSALFMSGVDMALFANDACGQPIPWEHCCPWMYFDGKLFQSKLLKASREKTPLIDLCDGQADQAAKVEKMRQSVLEGLSFSRQSHTLPFPPPPALPFYPASAYPRHFGPVPPSQGRGRGFAGVCGFGGPYGETVATGPYRAFRVAAASGHCGAFSGSDSSRTSKSQGGVQPIPSQGGKLEIAGTVVGHWAGSRRGRGGRGPFPLQVVSVGGPARGRPRGVISTPVIRTFGRGGRYYGRGYKNQAAIQGRPPYAASAEEVAKELKSKSGESKSSAMSSDGSLAENGVMAEEKPAPQMNGSTGDARAPSHSESALNNDSKTCNTNPHLNALSTDSACRREAALEAAVLNKEE
Take B4: the binding entry was “binds”.

B5: MCM3 (DNA replication licensing factor) (protein, UniProt P25205 1-808)
chain: MAGTVVLDDVELREAQRDYLDFLDDEEDQGIYQSKVRELISDNQYRLIVNVNDLRRKNEKRANRLLNNAFEELVAFQRALKDFVASIDATYAKQYEEFYVGLEGSFGSKHVSPRTLTSCFLSCVVCVEGIVTKCSLVRPKVVRSVHYCPATKKTIERRYSDLTTLVAFPSSSVYPTKDEENNPLETEYGLSVYKDHQTITIQEMPEKAPAGQLPRSVDVILDDDLVDKAKPGDRVQVVGTYRCLPGKKGGYTSGTFRTVLIACNVKQMSKDAQPSFSAEDIAKIKKFSKTRSKDIFDQLAKSLAPSIHGHDYVKKAILCLLLGGVERDLENGSHIRGDINILLIGDPSVAKSQLLRYVLCTAPRAIPTTGRGSSGVGLTAAVTTDQETGERRLEAGAMVLADRGVVCIDEFDKMSDMDRTAIHEVMEQGRVTIAKAGIHARLNARCSVLAAANPVYGRYDQYKTPMENIGLQDSLLSRFDLLFIMLDQMDPEQDREISDHVLRMHRYRAPGEQDGDAMPLGSAVDILATDDPNFSQEDQQDTQIYEKHDNLLHGTKKKKEKMVSAAFMKKYIHVAKIIKPVLTQESATYIAEEYSRLRSQDSMSSDTARTSPVTARTLETLIRLATAHAKARMSKTVDLQDAEEAVELVQYAYFKKVLEKEKKRKKRSEDESETEDEEEKSQEDQEQKRKRRKTRQPDAKDGDSYDPYDFSDTEEEMPQVHTPKTADSQETKESQKVELSESRLKAFKVALLDVFREAHAQSIGMNRLTESINRDSEEPFSSVEIQAALSKMQDDNQVMVSEGIIFLI
Consider B5, for which the binding entry is “binds”.

The values are drawn from PMC9561260.
